Experimental data as given in PubChem BioAssay AID504467 (National Center for Advancing Translational Sciences (NCATS), 2011).
About 7,700 (2.3%) of roughly 330,000 compounds were called active. Inconclusive means that the source gave no clear call. Such entries were picked first, then a sample of the others. Calls follow the shape of the dose curve; as a rule, active = well fitted inhibition curve with a large enough effect; inconclusive = small, poorly fitted or top-dose-only effect, or effect the other way; inactive = flat fitted curve, though single readings scatter. Potencies beside an inconclusive call are fits to weak or partial responses and may not hold up.

Test: qHTS screen for small molecules that inhibit ELG1-dependent DNA repair in human embryonic kidney (HEK293T) cells expressing luciferase-tagged ELG1; also: nearly all actives have a fitted effect of over 55% in size
Conditions: HEK293T ELG1-luciferase reporter, luminescence, 16 h, DNA damage induced by 5-fluorouridine; activity change, negative = inhibition: at 46.1 µM (top of the series)
Outline: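 Luminescence from the luciferase reporter, measured 30 min after ONE-Glo reagent at room temperature, was the read-out. Beforehand, 2,000 cells per well were exposed for 16 hr at 37 °C to 5-fluorouridine together with compound or vehicle.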
% is scaled to controls: 0 for no effect and ±100 for the full control effect; potency is read from the fitted curve at half-maximal effect.

SMILES | Potency | activity change, negative = inhibition
O=C(O)c1cccc(COCC(F)(F)C(F)F)c1 | inconclusive: 23.1 µM [activator, single point] | –
O=C(CN1CCC(n2nnc3cc(F)ccc32)CC1)NCCc1ccccc1 | inconclusive: 20.6 µM [activator, single point] | –
CCC(C)C(NC(=O)c1ccccc1NC(=O)c1ccc(C)cc1)C(=O)O (stereo not given) | inconclusive: 23.1 µM [activator, single point] | –
O=C(CCCC(=O)N1CCCc2ccccc21)N1CCCc2ccccc21 | inconclusive: 32.6 µM [inhibitor, single point] | –
Cc1ccc(S(=O)(=O)NCC(=O)NCC(=O)N(C)Cc2ccc3ccccc3c2)cc1C | inconclusive: 29.1 µM [inhibitor, single point] | –
CC(OC(=O)c1cccc(S(=O)(=O)N(C)C)c1)C(=O)NCc1ccc2c(c1)OCO2 (stereo not given) | – | inactive: -3.81%
Cc1ccc(-n2[nH]c(C)c(/C=N/Nc3ccc([N+](=O)[O-])cc3[N+](=O)[O-])c2=O)cc1 | – | inactive: -21.1%
Cc1ccc(NC(=O)Nc2ccc3c(c2)nc(C)n3C)cc1C | inconclusive: 4.11 µM [activator, partial curve] | –
N#CC1=C2SCN(Cc3ccccc3)CN2C(=O)CC1c1ccccc1F (stereo not given) | – | inactive: 12.1%
Cc1cccc(NC(=O)c2ccccc2NC(=O)C2CCCCC2)c1C | – | inactive: 7.36%
COc1cccc(-c2csc(N3CCN(C(=S)NCC(C)C)CC3)n2)c1 | inconclusive: 5.8 µM [inhibitor, single point] | –
O=C1/C(=C/c2cccnc2)CC/C1=C\c1cccnc1 | inconclusive: 29.1 µM [activator, single point] | –
CCc1nc2ccccc2c(C(=O)Nc2ccc(F)cc2)c1C | – | inactive: 0.294%
CC1(C)Cc2c(c(N3CCOCC3)nc3snc(NC(=O)c4ccccc4)c23)CO1 | inconclusive: 23.1 µM [inhibitor, partial curve, poor fit] | –
CCCCCCSc1ncc(C#N)c(N)n1 | inconclusive: 18.4 µM [activator, partial curve] | –
O=C(NNS(=O)(=O)c1ccccc1)c1sccc1-n1cccc1 | – | inactive: -2.97%
CCOC(=O)C1=C(Cc2ccc(F)cc2)C(=O)c2ccccc2C1=O | inconclusive: 32.6 µM [inhibitor, single point] | –
COc1ccc(OCC(=O)NC(=O)c2ccccc2)c([N+](=O)[O-])c1 | – | inactive: 28%
COc1ccc(-n2c(SCc3cn4c(C)cccc4n3)nc3ccccc3c2=O)cc1OC | inconclusive: 29.1 µM [inhibitor, single point] | –
COc1ccc(OC)c(S(=O)(=O)NCCOC23CC4CC(CC(C4)C2)C3)c1 | – | inactive: -8.96%
CSc1ccc(C2C(C(=O)c3ccco3)=C(O)C(=O)N2c2nnc(SC)s2)cc1 (stereo not given) | inconclusive: 0.73 µM [activator, single point] | –
CCOc1ccc(NC(=O)CSc2ncn[nH]2)c([N+](=O)[O-])c1 | – | inactive: 9.15%
CCc1sc(C(=O)Nc2ccc(OC)c(S(=O)(=O)N3CCOCC3)c2)cc1C | active: 8.2 µM | –

Record cards, as listed above. Values in the order: Potency | activity change, negative = inhibition
`O=C(CCCC(=O)N1CCCc2ccccc21)N1CCCc2ccccc21` reads inconclusive: 32.6 µM [inhibitor, single point] | –
`CCOc1ccc(NC(=O)CSc2ncn[nH]2)c([N+](=O)[O-])c1` reads – | inactive: 9.15%
`O=C(CN1CCC(n2nnc3cc(F)ccc32)CC1)NCCc1ccccc1` reads inconclusive: 20.6 µM [activator, single point] | –

Following part:

SMILES | Potency | activity change, negative = inhibition
COc1ccc(-c2cc(C(F)(F)F)n3nc(C(=O)N4CCCCC4)cc3n2)cc1 | – | inactive: -3.83%
CC1(C)Cc2cccc(OCC(=O)N3CCN(c4ccc([N+](=O)[O-])cc4)CC3)c2O1 | inconclusive: 16.4 µM [inhibitor, partial curve, poor fit] | –
CC(C)(C)OC(=O)NCCCCCNC(=O)c1[nH]cnc1C(=O)NC1CCN(C(=O)OC(C)(C)C)CC1 | inconclusive: 14.6 µM [inhibitor, partial curve, poor fit] | –
CC(=O)Cc1nsc(Nc2cccc(C)c2)n1 | inconclusive: 25.9 µM [activator, single point] | –
COc1ccc(NC(=O)C2CCCO2)cc1Cl (stereo not given) | inconclusive: 16.4 µM [activator, partial curve, poor fit] | –
CC(C)(C)OC(=O)N[C@@H](C(=O)OC(C)(C)C)c1ccc(Br)cc1 | inconclusive: 0.206 µM [activator, full curve, poor fit] | –
COCc1ccc(C(=O)N2CCCCC2C(=O)Nc2ccc(-n3nc(C)cc3C)cc2)o1 (stereo not given) | inconclusive: 29.1 µM [inhibitor, single point] | –
Cc1cccc(NC(=O)c2cccc3c2-c2ccccc2C3=O)n1 | – | inactive: -11%
O=C(/C(=C/O)N=Nc1cccc(C(F)(F)F)c1)c1ccccc1 | inconclusive: 29.1 µM [inhibitor, single point] | –
CCc1c(C)sc(NC(=O)c2cc(CC(C)C)on2)c1C#N | – | inactive: 0.684%
COc1ccc(/C([O-])=C(/C(=S)Nc2ccc(C)c(C)c2)n2c[n+](C)c3ccccc32)cc1OC | – | inactive: 1.99%
O=C1N(c2ccccc2C(F)(F)F)O[C@@]1(c1ccccc1)C1CCCC1 | – | inactive: -29.7%
O=C(Cc1cccc2ccccc12)N/N=C/c1ccc(Sc2nc3ccccc3s2)o1 | – | inactive: 3.35%
CC(C)(C)OC(=O)NCCCC[C@H](NC(=O)c1[nH]cnc1C(=O)Nc1ccc(CNC(=O)OC(C)(C)C)cc1)C(=O)OC(C)(C)C | inconclusive: 5.17 µM [inhibitor, partial curve] | –
Cc1ccc(C(=O)CSc2ccc(-c3ccncc3)nn2)cc1 | inconclusive: 29.1 µM [inhibitor, single point] | –
CCOC(=O)c1cnc(SC)nc1Oc1cccc(NC(=O)c2cccc(Cl)c2Cl)c1 | – | inactive: -3.8%
CC(C)CCNC(=O)C1CCC(CNS(=O)(=O)c2ccc(Cl)cc2)CC1 (stereo not given) | inconclusive: 1.16 µM [inhibitor, partial curve, poor fit] | –
CCOc1ccc(/C=N/NC(=O)c2ccc(F)cc2)cc1CN1CC2CC(C1)c1cccc(=O)n1C2 (stereo not given) | inconclusive: 10.3 µM [inhibitor, partial curve, poor fit] | –
O=C(Nc1ccc(-c2csc(Nc3ccccc3)n2)cc1)c1cc([N+](=O)[O-])cc(C(F)(F)F)c1 | active: 9.2 µM | –
CCOc1ccc(/C=C/c2nc(C#N)c(NCCCOC)o2)cc1 | – | inactive: -16.9%
CC1CN(C(=S)Nc2cccc(Cl)c2)CC(C)O1 (stereo not given) | – | inactive: -13.6%
